Among all 300,000 compounds or so, about 5,400 (1.8%) were called active. The inconclusive results got no clear call from the source; some entries with a clear call stand among them for comparison. Calls follow the shape of the full dose curve; tested in HEK293 cells. Potencies beside an inconclusive call are fits to weak or partial responses and may not hold up.
assay: qHTS for inhibitors of binding or entry into cells for Marburg Virus; details: Marburg virus pseudotyped entry inhibition, cell reporter; activity change, negative = inhibition: at 37.8 µM (top of the series) unless noted
% is scaled to controls: 0 for no effect and ±100 for the full control effect; potency is read from the fitted curve at half-maximal effect.

Structure (SMILES) | activity change, negative = inhibition | Potency
CCOC(=O)[C@@]1([C@@H](NC(=O)OC)c2cccc(C)c2)CCCC1=O | inactive: 26% [at 14.2 µM] | 
O=C(COC(=O)CNC(=O)c1ccc(Br)cc1)Nc1nnc(-c2ccccc2)o1 |  | inconclusive: 5.62 µM [inhibitor, single point]
COc1ccc(NC(=S)N/N=C/c2cccn2Cc2ccc(F)cc2)cc1 |  | inconclusive: 1.26 µM [inhibitor, partial curve, poor fit]
O=C1CCCc2oc3ccc(NS(=O)(=O)c4cccc5cccnc45)cc3c21 |  | inconclusive: 25.1 µM [inhibitor, single point]
Cc1ccc(OCCOCCNC(C)(C)C)c([N+](=O)[O-])c1 |  | inconclusive: 35.5 µM [activator, single point]
COc1ccc(C2=NN(S(C)(=O)=O)C(c3ccc4nccnc4c3)C2)cc1 (configuration not stated) |  | inconclusive: 2.91 µM [activator, partial curve, poor fit]
N/C(Cc1ccc(Cl)cc1)=N\OC(=O)c1ccccc1 |  | active: 12.6 µM
CCCSC1=N/C(=C\c2ccc([N+](=O)[O-])o2)C(=O)S1 |  | inconclusive: 17.8 µM [inhibitor, single point]
Cc1cc(C)n(-c2nc3ccccc3nc2Nc2ccc3[nH]c(=O)[nH]c3c2)n1 | inactive: -17.9% | 
Cc1cccc(-c2noc(C3CCCCC3)n2)c1 |  | inconclusive: 18.3 µM [activator, partial curve, poor fit]
O=C(COC(=O)CCS(=O)(=O)c1ccc(Cl)cc1)NCCc1ccccc1 |  | inconclusive: 7.08 µM [activator, full curve]
COc1ccc(/C=N/NC(=O)CCc2ccccc2)cc1O |  | inconclusive: 8.2 µM [inhibitor, partial curve, poor fit]
COC(=O)c1ccc(CCc2cc(O)ccc2O)cc1 |  | inconclusive: 7.08 µM [inhibitor, full curve, poor fit]
Cc1ccc(N(CC(=O)NCCc2ccccc2)S(=O)(=O)c2c(C)noc2C)cc1 |  | inconclusive: 13 µM [inhibitor, partial curve, poor fit]
CN(C)CCCNC(=O)/C(=C\c1ccc(-c2ccc(Br)cc2)o1)NC(=O)c1ccccc1 |  | inconclusive: 18.4 µM [inhibitor, single point]
Cc1ccc(O)c(C=Nc2ccc3[nH]ncc3c2)c1 |  | inconclusive: 0.398 µM [activator, partial curve, poor fit]
COc1ccc(CCNC(=O)COc2ccc(S(=O)(=O)N3CCOCC3)cc2C)cc1 |  | inconclusive: 12.6 µM [inhibitor, single point]
CN(c1ccccc1)S(=O)(=O)c1cc(C(=O)c2nccn2C)ccc1Cl |  | inconclusive: 18.3 µM [inhibitor, partial curve, poor fit]
CCCCS/C(N)=N/N=C/c1cc(C)ccc1O | inactive: -0.342% | 
O=C(Cc1cccs1)Nc1nnc(SCC(=O)NC2CCCCC2)s1 |  | inconclusive: 3.16 µM [inhibitor, partial curve, poor fit]
COc1cc(C)c(-c2[nH]ncc2-c2csc(C)n2)c(O)c1 |  | inconclusive: 20.6 µM [activator, single point]

Three of the compounds above, as a markdown table.

| Structure (SMILES) | activity change, negative = inhibition | Potency |
| --- | --- | --- |
| Cc1cc(C)n(-c2nc3ccccc3nc2Nc2ccc3[nH]c(=O)[nH]c3c2)n1 | inactive: -17.9% |  |
| Cc1cccc(-c2noc(C3CCCCC3)n2)c1 |  | inconclusive: 18.3 µM [activator, partial curve, poor fit] |
| O=C(COC(=O)CCS(=O)(=O)c1ccc(Cl)cc1)NCCc1ccccc1 |  | inconclusive: 7.08 µM [activator, full curve] |

(further entries)

Structure (SMILES) | activity change, negative = inhibition | Potency
COc1ccc(-n2c(O)c(/C=C/C=Nc3ccccc3)c(=O)[nH]c2=O)cc1 |  | inconclusive: 0.562 µM [inhibitor, full curve]
Cc1ccc(C(=O)N2C3=C(CCCC3)C(=O)NC23CCCCC3)cc1 |  | inconclusive: 3.16 µM [inhibitor, single point]
Cc1ccccc1OCC(=O)Nc1c(C(=O)Nc2ccccc2F)oc2ccccc12 |  | inconclusive: 12.6 µM [activator, partial curve, poor fit]
O=C(CCn1c(=O)oc2ccccc21)N1CCCCCC1 | inactive: 2.02% | 
CNC(=O)[C@H]1O[C@@H](n2cnc3c(NCc4cccc(I)c4)ncnc32)[C@H](O)[C@H]1O |  | inconclusive: 1.58 µM [inhibitor, partial curve, poor fit]
C=CCSc1nnc2nc3[nH]c4c(C)cccc4c3nn12 |  | inconclusive: 0.562 µM [inhibitor, full curve]
CC(C)CN(CC(C)C)C(=O)c1cc2c(=O)n3ccccc3nc2s1 |  | inconclusive: 15.8 µM [inhibitor, single point]
COc1cc(C2c3[nH]c4ccccc4c3CC3COC(=O)N32)cc(OC)c1O (configuration not stated) |  | inconclusive: 0.0891 µM [inhibitor, full curve, poor fit]
O=C1NC(=O)C2(Cc3ccccc3N3CCCC32)C(=O)N1Cc1ccccc1 (configuration not stated) | inactive: -0.488% | 
CCOc1ccsc1C(=O)O |  | inconclusive: 35.5 µM [activator, single point]
O=C(NC(=S)Nc1ccccc1)c1ccc(-c2ccccc2)cc1 |  | inconclusive: 0.891 µM [activator, partial curve, poor fit]
COc1ccc([C@H]2C[C@@H](O)[C@H](n3cc(-c4ccc(F)cc4)nn3)CN2CC2CCCCC2)cc1 |  | inconclusive: 0.0223 µM [inhibitor, full curve, poor fit]
CNC(=S)N/N=C/c1c2ccccc2c(Cl)c2ccccc12 | inactive: 2.72% [at 46.1 µM] | 
O=[N+]([O-])c1ccc(-c2cccnc2)cc1 |  | inconclusive: 0.562 µM [activator, full curve, poor fit]
C=CCSC(=S)Nc1c(C)n(C)n(-c2ccccc2)c1=O | inactive: -0.0676% [at 46.1 µM] | 
CCc1sc(N(C(=O)Cc2ccccc2)c2ccccc2)nc1-c1ccccc1 |  | inconclusive: 35.5 µM [inhibitor, single point]
CCCCCCOC(=O)c1ccccc1NC(=O)/C=C/C(=O)O |  | inconclusive: 25.9 µM [activator, partial curve, poor fit]
COc1ccccc1N1CCN(C2CCN(C(=O)COc3ccccc3)CC2)CC1 | inactive: -11.6% [at 46.1 µM] | 
CC(C)CN1CCN(Cc2cnc(N3CCOCC3)s2)CC1CCO (configuration not stated) |  | inconclusive: 35.5 µM [inhibitor, partial curve, poor fit]
Fc1ccc(-c2nc3ccncc3[nH]2)cc1 | inactive: 0.7% | 
CCOC(=O)c1c(NC(=O)CN2CCN(C(=O)c3ccco3)CC2)sc(C)c1C |  | inconclusive: 12.6 µM [inhibitor, single point]

— PubChem BioAssay AID540276 (National Center for Advancing Translational Sciences (NCATS), 2011)
